# Some of the results follow.
# System: T1, CTL2-GFP (C. trachomatis L2/434/Bu, GFP-expressing)
# T1 construct: L2/434/Bu, GFP-expressing
# Parameters: species or system HeLa; Intracellular C. trachomatis growth in HeLa cells, bulk GFP fluorescence relative to DMSO
# Settings: bulk GFP, single well; 28.5 h, 10 µM; inhibitor
row,Compound,% of control remaining [%]
1,Cc1ccc2oc(-c3ccc(C)c(NC(=S)NC(=O)c4ccc([N+](=O)[O-])cc4)c3)nc2c1 [CBK263897],139.25
2,COc1cc(CNc2ccc3[nH]c(=O)[nH]c3c2)cc(Br)c1OCC(=O)NC(C)(C)C [CBK266596],157.456
3,O=C1NC2(Nc3ccccc31)C(=O)N(Cc1cccc3ccccc13)c1ccccc12 (stereo not shown) [CBK264954],48.7485
4,COc1ccccc1CC(C)NC(=O)c1ccc2nc(C)[nH]c2c1 (stereo not shown) [CBK283261],108.81
5,Cc1cc2cc(CNc3cc(-c4ccccc4)ccc3O)c(=O)[nH]c2cc1C [CBK286164],130.944
6,COc1ccc(N2Cc3ccccc3C2=O)cc1OC [CBK113666],143.016
7,Oc1ccc(C2N(O)C3CCCCC3N2O)cc1 (stereo not shown) [CBK261715],123.076
8,O=C(NCc1ccc2occc2c1)C1(c2ccccc2)CCCC1 [CBK149525],71.3215
9,Cc1ccccc1-c1ccc(C(=O)Nc2ccc3c(c2)OCO3)c(N2CCN(C(=O)c3ccco3)CC2)n1 [CBK076196],83.6042
10,O=C(Nc1cccc2c1CCCC2)c1cnc2n(c1=O)CCS2 [CBK287379],117.487
11,COc1ccccc1CN(Cc1cccnc1)C(=O)c1cnc(C)cn1 [CBK306972],124.626
12,CC1CC1C(=O)NCCN1CCC(O)(c2cccc(F)c2)CC1 (stereo not shown) [CBK283286],146.126
13,COCC(=O)N1CCc2sccc2C1c1ccc(NC(=O)c2ccco2)cc1 (stereo not shown) [CBK286200],109.989
14,Clc1ccccc1-c1nsc(Nc2ccccc2)n1 [CBK016152],64.2576
15,CC(C)Nc1nc2ccccc2nc1Sc1ccncc1 [CBK115250],128.895
16,O=C(OCCC1SC(NC2CC3C=CC2C3)=NC1=O)c1c(F)cccc1F (stereo not shown) [CBK200057T],134.67
17,CCOC(=O)/C(C(=O)c1ccccc1)=C(/N)NCCO [CBK265621],119.852
18,CCN1c2ccc(-c3cncn3CCCn3ccnc3C)cc2CC1C (stereo not shown) [CBK281924],145.18
19,CCOC(=O)C1(Cc2cc(-c3cccc(F)c3)no2)CCCNC1 (stereo not shown) [CBK284578],122.34
20,CN(C(=O)[C@H]1CCCC[C@H]1C(=O)O)C1CCS(=O)(=O)C1 (stereo partly shown) [CBK286782],124.335
21,CC1CN(C(=O)/C=C/C(=O)O)c2ccccc2NC1=O (stereo not shown) [CBK286618],104.428
22,O=C1CC2(C(=O)N1CCC1CCCCC1)C(=O)N(Cc1ccccc1)c1ccc(F)cc12 (stereo not shown) [CBK075175],184.056
23,O=C(CC1(O)C(=O)N(Cc2ccccc2)c2ccccc21)c1cc2ccccc2oc1=O (stereo not shown) [CBK293963],176.427
24,Clc1ccc(COc2ccnc(N3CCCN(CC4CC4)CC3)n2)cc1Cl [CBK083963],146.272
25,Cc1ncsc1CCOc1ccc(C(F)(F)F)cn1 [CBK115790],131.545

row,Compound,% of control remaining [%]
1,CCC(Oc1ccccc1C)C(=O)Nc1ccccc1C(=O)N(C)C (stereo not shown) [CBK270144],113.911
2,Cc1ccnc2nc(C(=O)OC(C)C(=O)N3CCCC3)nn12 (stereo not shown) [CBK306089],107.576
3,Cn1nccc1CN1CCCC(Cc2nc3ccccc3[nH]2)C1 (stereo not shown) [CBK281892],104.482
4,O=C(Nc1ccc(-c2ccc(F)cc2)cc1)c1ccc(N2C(=O)CCC2=O)cc1 [CBK285683],109.637
5,O=C(NCc1ccc(OC(F)(F)F)cc1)c1cnoc1-c1ccc(Br)cc1 [CBK154885],119.272
6,CCCC/C=C/c1cnc(Nc2ccc(N3CCOCC3)cc2)c2nccn12 [CBK091239],135.897
7,COc1cccc(CNc2nccnc2-c2cccs2)c1OC [CBK036784],219.781
8,CC(C)(C)C(=O)NCCCC(=O)Nc1nc2ccc(Oc3ccccc3)cc2s1 [CBK296652],95.1346
9,Cc1cccc([C@@H]2CN(Cc3ccccc3)C[C@]23CCCC(=O)N3)n1 [CBK283350],90.7457
10,COc1ccc(OCCNC(=O)c2ccc(-c3ccc(C(C)=O)s3)nc2N(C)C(C)=O)cc1 [CBK076576],106.467
11,O=C(Cc1c[nH]c2ccccc12)N1CCC2(CCCN(CCO)C2)C1 (stereo not shown) [CBK132045],164.798
12,O=C(Nc1cccc(F)c1)N(CCO)Cc1cccnc1 [CBK304860],99.5447
13,CCN(CC)CCNC(=O)c1ccc(/C=N/O)nc1 [CBK288375],132.618
14,Cc1c(Cl)cccc1NC(=O)c1cnc2sccn2c1=O [CBK246518],104.711
15,O=C(CSc1nnc(-c2ccncc2)n1C1CCCCC1)Nc1ncc2c(n1)CC(c1ccccc1)CC2=O (stereo not shown) [CBK266177],194.569
16,CN1CCC[C@H]1C(=O)Nc1ccc2[nH]ccc2c1 [CBK159699],109.031
17,O=C(OCc1ccccc1)Oc1cncc(C(=O)O)c1 [CBK262053],100
18,COc1ccc(-c2nc3c(c(SCC(=O)O)n2)COC(C)(C)C3)cc1 [CBK286704],118.747
19,O=C1C[C@@H]2CCN(C(=O)Nc3cccc(C(F)(F)F)c3)C[C@@H]2CCN1CCc1c[nH]cn1 [CBK288786],74.2504
20,COc1ccc(-c2ccc(Nc3cccc(N(C)C)c3)nc2)cc1OC [CBK037606],103.638
21,CC(C)(C)C(=O)CN1CCC2(CC1)NCCc1c2[nH]c2cc(F)ccc12 [CBK039568],154.911
22,COc1ccc(S(=O)(=O)N2CC[C@H]3NC(=O)N(c4ccc(C(C)C)cc4)C(=O)[C@H]32)cc1 [CBK289290],105.483
23,O=S(=O)(O)c1cc(O)c2c(/N=N/c3c(S(=O)(=O)O)cc4cc(S(=O)(=O)O)cc(O)c4c3O)cc(S(=O)(=O)O)cc2c1 [CBK260934],87.2393
24,O=C1CCC(=O)N1CCN1C(=O)C2(CC(=O)N(Cc3ccccc3)C2=O)c2ccccc21 (stereo not shown) [CBK075705],176.042

# A section from further up, as a working copy:
row,Compound,% of control remaining [%]
4,COc1ccccc1CC(C)NC(=O)c1ccc2nc(C)[nH]c2c1 (stereo not shown) [CBK283261],108.81
5,Cc1cc2cc(CNc3cc(-c4ccccc4)ccc3O)c(=O)[nH]c2cc1C [CBK286164],130.944
6,COc1ccc(N2Cc3ccccc3C2=O)cc1OC [CBK113666],143.016
